Results as given in PubChem BioAssay AID504834 (National Center for Advancing Translational Sciences (NCATS), 2011).
Hit rate of the full screen: of about 320,000 compounds, about 22,000 (6.9%) were called active. The inconclusive results got no clear call from the source; some entries with a clear call stand among them for comparison. The call rests on the fitted dose curve; in most records, active means well fitted inhibition curve with a large enough effect; inconclusive means small, poorly fitted or top-dose-only effect, or another doubt; inactive means no such curve, though single readings can be large or run the other way. A potency beside an inconclusive call is a rough fit, not a confirmed value.

Assay: Primary qHTS for delayed death inhibitors of the malarial parasite plastid, 96 hour incubation
Conditions: P. falciparum luciferase reporter growth; series mostly up to 28.7 µM
Outline: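 Compounds incubated with erythrocytes infected by luciferase-expressing P. falciparum (2% hematocrit, 0.05% parasitemia final) for 96 hours, 37 C in 5% CO2. Growth inhibition scored as decreased luciferase luminescence.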
Potency means the concentration at half of the fitted maximal effect.

| Structure (SMILES) | Potency |
| --- | --- |
| Cc1ccc(CN2CCN(Cc3ccc4cc(F)ccc4n3)CC2CCO)o1 (stereo not given) | inconclusive: 14.7 µM [inhibitor, single point] |
| CC(=O)N1CCC(N(CCCOC(C)C)C(=O)Nc2ccc(C)c(C)c2)CC1 | inconclusive: 7.38 µM [inhibitor, partial curve, poor fit] |
| O=C(O)CCCCCNC(=O)/C(=C\c1ccco1)NC(=O)c1ccco1 | inconclusive: 13.1 µM [inhibitor, single point] |
| O=c1cccc2n1CC1CC2CN(CC(O)CN2CC3CC(C2)c2cccc(=O)n2C3)C1 (stereo not given) | inconclusive: 18.5 µM [inhibitor, single point] |
| O=S(=O)(c1ccccc1)N(C1=NCCS1)S(=O)(=O)c1ccccc1 | inconclusive: 0.928 µM [inhibitor, full curve, poor fit] |
| COCCN(Cc1ccco1)C(=O)C1CCCN(c2ncnc3c2nc2n3CCCCC2)C1 (stereo not given) | active: 4.15 µM |
| CCOc1ccc(NC(=S)N2CCN(CCN3C(=O)c4cccc5cccc(c45)C3=O)CC2)cc1 | inactive |
| COc1ccc(NC(=O)Cn2nnc(C(=O)NCc3cccs3)c2N)cc1OC | inconclusive: 11.7 µM [inhibitor, partial curve, poor fit] |
| CNC(=O)NNC(=O)c1nc(-c2ccccc2)c(C)o1 | inconclusive: 0.0026 µM [inhibitor, full curve, poor fit] |
| Cc1nnc(SCC(=O)N2CCN(c3ccccc3F)CC2)n1C1CC1 | inactive |
| O=C(c1cnn(-c2ccccc2)c1)c1ccccc1O | inactive |
| O=C(Nc1ccccc1N1CCOCC1)c1ccc(N2CCOCC2)c([N+](=O)[O-])c1 | inconclusive: 6.57 µM [inhibitor, partial curve, poor fit] |
| COc1ccc(-c2nnc(SC(C)C(=O)Nc3ccc4c(c3)OCCO4)o2)cc1 (stereo not given) | active: 11.7 µM |
| COc1ccc(C2=NOC(CNC(=O)c3ccccc3Br)C2)c(OC)c1 (stereo not given) | inconclusive: 8.28 µM [inhibitor, partial curve, poor fit] |
| CCOC(=O)C1=C(COC(=O)CCOc2ccccc2)NC(=O)NC1C (stereo not given) | inconclusive: 14.7 µM [inhibitor, partial curve, poor fit] |
| Clc1ccccc1OCc1nnc(-c2ccccc2Br)o1 | inconclusive: 0.0026 µM [inhibitor, full curve, poor fit] |
| COc1ccc(-c2nc(C#N)c(N3CCN(c4ccccc4)CC3)o2)cc1 | inactive |
| COc1ccc(-c2cc(C(F)(F)F)c(C#N)c(=O)[nH]2)cc1 | inactive |
| COc1cccc(CNC(=O)CNC(=S)N(Cc2ccccc2)Cc2ccccc2F)c1 | inactive |
| COc1ccc2c(c1)[N+](C)(C)C(C)(C)C=C2C | inconclusive: 16.5 µM [inhibitor, partial curve, poor fit] |
| O=C(Nc1ccc(F)cc1)C1CCCN(C2=NS(=O)(=O)c3ccccc32)C1 (stereo not given) | inconclusive: 18.5 µM [inhibitor, single point] |
| Cc1ccc(-n2ncc3c2CC(C)(C)CC3NC(=O)c2cc[n+]([O-])cc2)cc1 (stereo not given) | inactive |

| Structure (SMILES) | Potency |
| --- | --- |
| COc1ccc(CCNC(=O)CCN2C(=O)[C@@H]3Cc4ccccc4CN3C2=O)cc1 | inconclusive: 1.85 µM [inhibitor, partial curve, poor fit] |
| COc1ccc(C2C(=O)N(C3CCCCC3)CC(=O)N2CC2COc3ccccc3O2)cc1 (stereo not given) | inconclusive: 4.15 µM [inhibitor, full curve, poor fit] |
| COc1ccc(/C=C2\Oc3cc(OCC(=O)N4CCC[C@H]4C(=O)O)ccc3C2=O)cc1OC | inconclusive: 9.28 µM [inhibitor, single point] |
| CCS(=O)(=O)N1CCC(C(=O)c2ccc(Cl)cc2)CC1 | inconclusive: 13.1 µM [inhibitor, partial curve, poor fit] |
| O=C(Nc1cc(F)ccc1F)c1cccc(-n2cnnn2)c1 | inactive |
| O=C1CC(Sc2ncccn2)C(=O)N1c1ccccc1C(F)(F)F (stereo not given) | inconclusive: 14.7 µM [inhibitor, single point] |
| CC(NC(=S)NCCCN1CCOCC1)C12CC3CC(CC(C3)C1)C2 (stereo not given) | inconclusive: 10.4 µM [inhibitor, single point] |
| CCCOc1ccc(N2C(=O)CC(SCCN)C2=O)cc1 (stereo not given) | inconclusive: 18.5 µM [inhibitor, single point] |
| CCCCn1c(N)c(N(C)C(=O)c2ccccc2Oc2ccccc2)c(=O)[nH]c1=O | inconclusive: 14.7 µM [inhibitor, partial curve, poor fit] |
| COc1ccc(C(=O)C(=O)c2ccc(OCCO)cc2)cc1 | inactive |
| Cc1oc2cc3oc(=O)c(CCC(=O)NC4CC4)c(C)c3cc2c1C | inconclusive: 7.38 µM [inhibitor, partial curve, poor fit] |
| O=C(c1ccc(N2CCN(C(=O)c3cccc(F)c3)CC2)cc1)c1cccc(F)c1 | inconclusive: 4.15 µM [inhibitor, partial curve, poor fit] |
| CCc1ccc(NC(=O)CCc2c(C)nn(-c3ccc(N4CCOCC4)nn3)c2C)cc1 | inconclusive: 18.5 µM [inhibitor, single point] |
| COc1ccc(OC)c(NC(=O)COc2ccc3c(c2)CCC3)c1 | inconclusive: 10.4 µM [inhibitor, single point] |
| CC(C)NS(=O)(=O)c1ccc(CCC(=O)Nc2ccc3c(c2)OCO3)cc1 | inconclusive: 18.5 µM [inhibitor, single point] |
| COc1cc(-c2[nH]nc3c2C(c2ccco2)C(C#N)=C(N)O3)cc(OC)c1OC (stereo not given) | inconclusive: 13.1 µM [inhibitor, single point] |
| O=C(NCc1cccnc1)C(=O)Nc1nc(C23CC4CC(CC(C4)C2)C3)cs1 | inconclusive: 10.4 µM [inhibitor, single point] |
| O=C1NC(=O)N(Cc2ccco2)C(=O)/C1=C/c1cccn1CCOc1ccccc1Cl | inactive |
| CN1Cc2c(N3CCOCC3)nc3sc(C(=O)c4ccccc4)c(N)c3c2CC1(C)C | inconclusive: 3.29 µM [inhibitor, partial curve, poor fit] |
| CCOP(=O)(c1ccccc1)C(O)c1ccc([N+](=O)[O-])cc1 (stereo not given) | inactive |
| Cc1oc(-c2ccccc2Cl)nc1CSCC(=O)NC1CCCC1 | inconclusive: 20.8 µM [inhibitor, single point] |
| COC(=O)CSc1nnc(Cc2ccccc2)n1-c1ccc(C)cc1 | inactive |

At a glance, some entries already given.

| Structure (SMILES) | Potency |
| --- | --- |
| Cc1ccc(CN2CCN(Cc3ccc4cc(F)ccc4n3)CC2CCO)o1 (stereo not given) | inconclusive: 14.7 µM [inhibitor, single point] |
| CC(=O)N1CCC(N(CCCOC(C)C)C(=O)Nc2ccc(C)c(C)c2)CC1 | inconclusive: 7.38 µM [inhibitor, partial curve, poor fit] |

Continuation.

| Structure (SMILES) | Potency |
| --- | --- |
| CCOC(=O)C1=NN(c2ccccc2)C(=O)C1 | inconclusive: 11.7 µM [inhibitor, partial curve, poor fit] |
| COc1ccc(C2CC(c3c(Cl)cccc3Cl)n3nc(N)nc3N2)cc1 (stereo not given) | inconclusive: 18.5 µM [inhibitor, single point] |
| COc1ccc(CC(=O)Nc2ccc(C#N)c(Cl)c2)cc1S(=O)(=O)N1CCOCC1 | inconclusive: 18.5 µM [inhibitor, single point] |
| O=c1cc(CN2CCN(Cc3ccccc3)CC2)c2cc(O)ccc2o1 | inconclusive: 14.7 µM [inhibitor, partial curve] |
| Clc1ccc(-c2ncc3ccccn23)c(Cl)c1 | inconclusive: 14.7 µM [inhibitor, single point] |
| CCN(C(=O)[C@@H]1CCCN1C(=O)c1cccs1)c1nc2cc(Cl)ccc2s1 | inactive |
| COc1ccc(-c2nc(NC(=O)c3cc(C(C)(C)C)nn3C)sc2C)cc1 | inactive |
| CNNC(=S)NC1CC2CC1C1C=CCC21 (stereo not given) | inconclusive: 10.4 µM [inhibitor, single point] |
| Cc1ccccc1NS(=O)(=O)c1ccc(C(=O)N2CCCCCCC2)cc1 | inconclusive: 18.5 µM [inhibitor, single point] |
| COc1cc(C(=O)OCC(=O)Nc2ccc3c(c2)OC(F)(F)O3)ccc1OCc1c(C)noc1C | inconclusive: 11.7 µM [inhibitor, single point] |
| CC(NC(=O)c1ccco1)c1nc(-c2ccc(Cl)cc2)no1 (stereo not given) | inconclusive: 9.28 µM [inhibitor, single point] |
| COC(=O)C(C)N1C(=O)S/C(=C\c2cc(C)n(-c3ccccn3)c2C)C1=O (stereo not given) | inactive |
| Cn1cc(CN2CCC(C(O)CCc3ccccc3)CC2)c(-c2ccccc2F)n1 (stereo not given) | inconclusive: 10.4 µM [inhibitor, single point] |
| COc1ccc(C(=O)NCCc2cc3c(OC)ccc(OC)c3[nH]c2=O)cc1OC | inconclusive: 7.38 µM [inhibitor, single point] |
| CC(C)c1ccccc1-n1c(SCC(=O)N2CCN(c3ccccc3)CC2)nnc1-c1cccnc1 | active: 8.28 µM |
| COc1cccc(NC(=O)c2nnn(Cc3ccc(Br)cc3F)c2N)c1 | inconclusive: 16.5 µM [inhibitor, single point] |
| COc1ccc2[nH]c3nc(SCC(=O)Nc4cccc(NC(C)=O)c4)nnc3c2c1 | inconclusive: 2.08 µM [inhibitor, single point] |
| CCN(CC)CCCNC(=O)CCC(=O)Nc1ccc2nc(N3CCCCC3)cc(C)c2c1 | inactive |
| COc1ccc(/C=C/C(=O)Nc2cc(S(=O)(=O)N3CCCCC3)ccc2N2CCCCC2)cc1OC | inconclusive: 3.29 µM [inhibitor, partial curve, poor fit] |
| C=C1CCC[C@]2(C)C[C@H]3OC(=O)C(CN4CC(C)OC(C)C4)[C@H]3C[C@@H]12 (stereo not given in full) | inconclusive: 18.5 µM [inhibitor, single point] |
| CCOC(=O)N1CCN(C(=O)CS(=O)Cc2nc(-c3ccc(C)cc3)oc2C)CC1 (stereo not given) | inconclusive: 18.5 µM [inhibitor, single point] |
